For 1 molecule, Ratio results are on record in EP0541617B1, “1,4-DISUBSTITUTED PIPERAZINES” (NOVO NORDISK A/S, priority 1990, dated 1992).

Molecules are shown by their SMILES.

The subject of the data set is Male NMRI mice. The data set is described as follows: Test 2: increase of motility of mice after intravenous administration (photocell crossings). Particulars: ratio between in vitro inhibition of 3H-GBR 12935 binding (Test 1) and in vivo activity in increasing motility (Test 2). As to the method: The compounds were also tested for their ability to increase the motility of mice following intravenous administration using the method outlined below.
Male NMRI mice are used (20 ± 2 g). The animals are housed 20-30 per cage under constant temperature (20 ± 1°C) and relative humidity (40-60%). The animals are brought into the experimental room in the afternoon, the day before they undergo testing.
The experimentally-naive, uninjected mice are acclimatized by being placed in a plexiglass box (WLH: 20 x 20 x 38 cm), four per box, for a 120 min period, and then injected with the test compound whereafter they are replaced in the plexiglass box.
The plexiglass box is equipped with a frame of photocells (spaced equidistantly) which are situated so as to detect locomotor behaviour of the animals (1 cm above the floor). The photocell chamber is housed in an sound-insulated, dimly-lit, ventilated chest. As a measure of exploratory behaviour, the number of photocell crossings in a 360 min period is detected using a minicomputer. Testing is made between 7:00 and 17.00 h.
Drugs are injected i.v. simultaneously with start of testing; N = 4/dose; 4-5 doses of test drug is given in a volume of 10 ml/kg. […]

With `N#CCCCCN1CCN(CCOC(c2ccc(F)cc2)c2ccc(F)cc2)CC1` [Example 4A, 1-[2-(bis-(4-fluorophenyl)-methoxy)-ethyl]-4-(4-cyanobutyl)-piperazine], the Ratio was 7.5.
